This is one part of the list.
Legend:
Test in all cases: log2 fold change, soluble protein after heating vs DMSO (PISA); higher = thermal stabilisation; K562 cells, 10 uM, 30 min; active = over 0.2 and 3.5 SD of the protein, either way, in both replicates (recomputed)
[1] = compound: CN1CCN(c2nc(C3=C(c4c[nH]c5ccccc45)C(=O)NC3=O)c3ccccc3n2)CC1 [sotrastaurin]
How it was run: (§1)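 K562 cells at 2×10^6 cells/mL were exposed to 10 μM compound for 30 min, then aliquots were heated for 3 min across 48°C-58°C, pooled, and extracted in PBS containing 0.5% NP-40 at 4°C. The supernatant after 21,000xg for 90 min was taken as soluble protein and measured by TMTpro 16plex LC-MS/MS with channel sums equalised. Thermal stability is reported relative to control samples, with values from duplicates. Fold changes are given on a log2 scale.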

Protein sequences, listed by entry. Tags and fused reporters are not part of them. Lines headed by an entry give the natural chain unless they say otherwise; changes in a name come on top.
UniProt Q9UL15: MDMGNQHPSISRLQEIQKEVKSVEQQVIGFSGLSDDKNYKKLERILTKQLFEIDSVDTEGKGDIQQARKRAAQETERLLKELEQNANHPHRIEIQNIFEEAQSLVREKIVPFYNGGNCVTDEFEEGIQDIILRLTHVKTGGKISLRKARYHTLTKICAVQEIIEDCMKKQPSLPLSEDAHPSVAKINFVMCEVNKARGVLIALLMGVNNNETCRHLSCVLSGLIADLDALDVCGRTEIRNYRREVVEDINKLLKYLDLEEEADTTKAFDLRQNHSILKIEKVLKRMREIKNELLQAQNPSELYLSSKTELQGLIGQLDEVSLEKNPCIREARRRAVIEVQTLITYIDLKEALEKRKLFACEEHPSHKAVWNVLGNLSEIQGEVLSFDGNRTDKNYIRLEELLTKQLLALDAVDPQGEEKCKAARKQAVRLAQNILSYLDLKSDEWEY
UniProt O43505: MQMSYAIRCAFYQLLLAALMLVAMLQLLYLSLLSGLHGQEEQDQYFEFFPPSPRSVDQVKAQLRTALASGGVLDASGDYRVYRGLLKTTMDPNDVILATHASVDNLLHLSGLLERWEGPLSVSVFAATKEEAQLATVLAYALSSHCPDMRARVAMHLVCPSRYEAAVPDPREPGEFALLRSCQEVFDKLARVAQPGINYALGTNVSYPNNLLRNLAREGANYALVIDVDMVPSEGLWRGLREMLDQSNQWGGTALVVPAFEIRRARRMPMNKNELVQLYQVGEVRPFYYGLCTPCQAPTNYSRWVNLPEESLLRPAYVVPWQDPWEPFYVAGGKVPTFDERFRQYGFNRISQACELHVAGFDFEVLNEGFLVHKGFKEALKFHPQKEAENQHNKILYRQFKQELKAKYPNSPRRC
UniProt Q93088: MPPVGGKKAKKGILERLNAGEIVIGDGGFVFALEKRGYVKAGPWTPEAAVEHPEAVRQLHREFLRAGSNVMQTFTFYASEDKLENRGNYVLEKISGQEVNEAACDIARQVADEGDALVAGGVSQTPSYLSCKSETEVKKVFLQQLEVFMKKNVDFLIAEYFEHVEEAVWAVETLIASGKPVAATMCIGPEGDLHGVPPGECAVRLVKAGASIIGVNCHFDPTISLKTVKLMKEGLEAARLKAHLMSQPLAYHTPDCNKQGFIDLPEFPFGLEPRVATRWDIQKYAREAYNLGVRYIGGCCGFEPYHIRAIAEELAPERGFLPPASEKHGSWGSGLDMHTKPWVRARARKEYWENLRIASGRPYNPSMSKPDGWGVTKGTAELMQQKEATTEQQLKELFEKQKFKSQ
UniProt P55957: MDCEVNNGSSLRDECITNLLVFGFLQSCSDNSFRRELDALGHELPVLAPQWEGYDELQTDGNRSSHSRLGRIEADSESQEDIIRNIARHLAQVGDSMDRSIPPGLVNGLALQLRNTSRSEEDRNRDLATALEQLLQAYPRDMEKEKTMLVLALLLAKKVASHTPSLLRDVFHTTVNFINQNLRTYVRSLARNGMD
UniProt Q96G97: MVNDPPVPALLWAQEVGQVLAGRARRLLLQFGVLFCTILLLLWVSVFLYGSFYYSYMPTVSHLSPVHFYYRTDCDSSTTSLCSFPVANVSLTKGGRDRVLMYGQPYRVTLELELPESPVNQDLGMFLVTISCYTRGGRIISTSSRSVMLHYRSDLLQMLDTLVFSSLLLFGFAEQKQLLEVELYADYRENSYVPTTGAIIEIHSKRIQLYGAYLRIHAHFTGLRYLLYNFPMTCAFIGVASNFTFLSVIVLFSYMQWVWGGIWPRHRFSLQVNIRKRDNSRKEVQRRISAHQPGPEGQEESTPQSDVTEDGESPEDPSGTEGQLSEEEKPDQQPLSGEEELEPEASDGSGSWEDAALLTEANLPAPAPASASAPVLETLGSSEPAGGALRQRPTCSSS
UniProt Q14137: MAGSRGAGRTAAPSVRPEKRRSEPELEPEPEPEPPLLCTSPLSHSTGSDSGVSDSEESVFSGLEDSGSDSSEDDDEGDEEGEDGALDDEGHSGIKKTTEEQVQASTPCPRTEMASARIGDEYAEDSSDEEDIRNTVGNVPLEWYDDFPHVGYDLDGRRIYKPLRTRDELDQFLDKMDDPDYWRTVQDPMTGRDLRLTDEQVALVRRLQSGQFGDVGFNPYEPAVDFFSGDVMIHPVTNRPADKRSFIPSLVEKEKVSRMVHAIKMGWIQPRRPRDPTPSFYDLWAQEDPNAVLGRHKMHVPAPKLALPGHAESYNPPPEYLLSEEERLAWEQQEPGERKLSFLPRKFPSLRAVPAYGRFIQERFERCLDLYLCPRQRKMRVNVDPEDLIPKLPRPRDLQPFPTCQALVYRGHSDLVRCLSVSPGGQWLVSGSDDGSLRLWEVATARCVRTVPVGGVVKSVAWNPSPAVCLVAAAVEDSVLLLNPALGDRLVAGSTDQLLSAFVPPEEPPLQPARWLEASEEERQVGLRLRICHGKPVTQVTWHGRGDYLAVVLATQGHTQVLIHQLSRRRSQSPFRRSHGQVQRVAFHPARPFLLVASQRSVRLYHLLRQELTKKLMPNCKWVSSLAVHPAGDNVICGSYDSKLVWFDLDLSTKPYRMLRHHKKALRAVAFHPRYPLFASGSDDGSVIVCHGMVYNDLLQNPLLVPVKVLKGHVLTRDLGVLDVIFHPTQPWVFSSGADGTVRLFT
UniProt Q9UQB8: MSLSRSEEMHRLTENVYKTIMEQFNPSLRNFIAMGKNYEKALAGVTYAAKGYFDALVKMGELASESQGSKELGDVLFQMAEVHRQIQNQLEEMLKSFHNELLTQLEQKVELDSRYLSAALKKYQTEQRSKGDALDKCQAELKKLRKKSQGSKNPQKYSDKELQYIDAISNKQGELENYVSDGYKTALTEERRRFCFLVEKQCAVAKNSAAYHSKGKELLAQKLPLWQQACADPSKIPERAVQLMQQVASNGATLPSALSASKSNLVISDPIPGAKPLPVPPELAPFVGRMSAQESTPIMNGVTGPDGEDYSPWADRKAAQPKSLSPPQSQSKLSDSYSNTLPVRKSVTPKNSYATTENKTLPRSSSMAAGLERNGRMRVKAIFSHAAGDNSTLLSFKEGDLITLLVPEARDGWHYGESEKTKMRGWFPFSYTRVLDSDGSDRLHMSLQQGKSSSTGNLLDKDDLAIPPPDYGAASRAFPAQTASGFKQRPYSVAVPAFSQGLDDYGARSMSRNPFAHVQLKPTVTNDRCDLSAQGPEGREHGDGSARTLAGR
UniProt Q9H7T9: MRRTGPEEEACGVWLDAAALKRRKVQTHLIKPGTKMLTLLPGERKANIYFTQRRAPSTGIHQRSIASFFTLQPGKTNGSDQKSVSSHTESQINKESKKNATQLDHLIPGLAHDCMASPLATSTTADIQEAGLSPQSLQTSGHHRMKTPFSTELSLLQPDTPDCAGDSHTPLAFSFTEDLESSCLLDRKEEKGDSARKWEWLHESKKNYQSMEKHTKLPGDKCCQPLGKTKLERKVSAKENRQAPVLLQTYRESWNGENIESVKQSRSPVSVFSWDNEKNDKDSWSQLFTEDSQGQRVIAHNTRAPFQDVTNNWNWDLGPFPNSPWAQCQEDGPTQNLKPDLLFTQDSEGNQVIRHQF
UniProt Q7Z7M8: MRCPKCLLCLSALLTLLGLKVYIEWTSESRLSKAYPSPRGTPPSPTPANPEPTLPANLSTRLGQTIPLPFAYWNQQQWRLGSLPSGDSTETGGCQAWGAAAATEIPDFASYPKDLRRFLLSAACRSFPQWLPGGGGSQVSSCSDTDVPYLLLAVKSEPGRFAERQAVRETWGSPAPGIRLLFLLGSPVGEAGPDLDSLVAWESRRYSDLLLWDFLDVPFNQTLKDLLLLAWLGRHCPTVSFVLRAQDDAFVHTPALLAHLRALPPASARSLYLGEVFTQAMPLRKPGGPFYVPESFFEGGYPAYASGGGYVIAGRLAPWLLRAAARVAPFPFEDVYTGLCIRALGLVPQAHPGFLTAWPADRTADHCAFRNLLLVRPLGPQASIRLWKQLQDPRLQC
UniProt Q9NP55: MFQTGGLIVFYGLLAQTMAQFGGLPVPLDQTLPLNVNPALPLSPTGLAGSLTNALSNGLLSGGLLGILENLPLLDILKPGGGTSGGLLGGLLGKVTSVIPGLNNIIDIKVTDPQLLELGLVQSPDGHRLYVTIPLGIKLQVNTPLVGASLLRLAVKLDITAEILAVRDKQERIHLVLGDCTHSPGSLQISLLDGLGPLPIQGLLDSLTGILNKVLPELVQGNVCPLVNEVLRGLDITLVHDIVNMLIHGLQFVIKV
UniProt Q4VC05, whole entry, looked up: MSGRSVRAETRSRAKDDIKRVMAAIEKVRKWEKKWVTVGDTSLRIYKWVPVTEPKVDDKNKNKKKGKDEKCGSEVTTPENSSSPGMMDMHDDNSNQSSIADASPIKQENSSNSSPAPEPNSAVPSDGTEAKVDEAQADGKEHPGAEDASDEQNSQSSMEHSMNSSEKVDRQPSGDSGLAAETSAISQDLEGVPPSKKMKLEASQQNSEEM
UniProt Q12983, whole entry, looked up: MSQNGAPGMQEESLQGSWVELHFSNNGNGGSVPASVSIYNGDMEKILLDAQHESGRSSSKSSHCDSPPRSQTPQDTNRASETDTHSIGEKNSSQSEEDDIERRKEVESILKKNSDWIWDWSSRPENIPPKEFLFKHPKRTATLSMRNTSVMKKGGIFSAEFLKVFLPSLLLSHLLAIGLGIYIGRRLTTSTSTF

[2] = compound: CN1CC[C@H](c2c(O)cc(O)c3c(=O)cc(-c4ccccc4Cl)oc23)[C@H](O)C1 [alvocidib]
How it was run: as §1

[3] = compound: CN1CCc2c(c3ccccc3n2Cc2ccc(C(=O)NO)cc2)C1 [Tubastatin A]
How it was run: as §1

[4] = compound: CNC(=O)C1=CC=CC=C1NC2=NC(=NC=C2Cl)NC3=C(C=C(C=C3)N4CCOCC4)OC
How it was run: as §1

[5] = compound: CNC(=O)c1ccc(Nc2ncc(C(F)(F)F)c(NCc3nccnc3N(C)S(C)(=O)=O)n2)cc1 [defactinib]
How it was run: as §1

[6] = compound: CNCc1ccc(-c2[nH]c3cc(F)cc4c3c2CCNC4=O)cc1 [rucaparib]
How it was run: as §1

[7] = compound: COC(=O)N[C@@H](C)CNc1nccc(-c2cn(C(C)C)nc2-c2cc(Cl)cc(NS(C)(=O)=O)c2F)n1 [encorafenib]
How it was run: as §1

[8] = compound: COC(=O)[C@H](CCSC)NC(=O)C1=C(C=C(C=C1)NC[C@H](CS)N)C2=CC=CC=C2
How it was run: as §1

[9] = compound: COC1=CC=C(C=C1)CN2C=CC3=C2C=C(C=C3)C(=O)NO
How it was run: as §1

[10] = compound: CON(C)C(=O)N1N=C(c2cc(F)ccc2F)S[C@@]1(CCCN)c1ccccc1 [filanesib]
How it was run: as §1

[11] = compound: CO[C@H]1C[C@@H]2CC[C@@H](C)[C@@](O)(O2)C(=O)C(=O)N2CCCC[C@H]2C(=O)O[C@H]([C@H](C)C[C@@H]2CC[C@H](n3cnnn3)[C@H](OC)C2)CC(=O)[C@H](C)/C=C(\C)[C@@H](O)[C@@H](OC)C(=O)[C@H](C)C[C@H](C)/C=C/C=C/C=C/1C [zotarolimus]
How it was run: as §1

[12] = compound: COc1cc(C(=O)O)ccc1NC(=O)[C@@H]1N[C@@H](CC(C)(C)C)[C@](C#N)(c2ccc(Cl)cc2F)[C@H]1c1cccc(Cl)c1F [idasanutlin]
How it was run: as §1

[13] = compound: COc1cc(Nc2ncc3c(n2)-c2ccc(Cl)cc2C(c2c(F)cccc2OC)=NC3)ccc1C(=O)O [alisertib]
How it was run: as §1

[14] = compound: COc1cc2nc(-c3cc(F)ccc3O)nc(N[C@@H]3CNC[C@H]3C(C)(C)O)c2cc1OC
How it was run: as §1

[15] = compound: COc1cc2ncnc(Nc3ccc(F)c(Cl)c3)c2cc1OCCCN1CCOCC1 [gefitinib]
How it was run: as §1

[16] = compound: COc1cccc2cc(-c3nc([C@H]4CC[C@H](C(=O)O)CC4)n4ncnc(N)c34)[nH]c12
How it was run: as §1

[17] = compound: CS(=O)(=O)CCNCc1ccc(-c2ccc3ncnc(Nc4ccc(OCc5cccc(F)c5)c(Cl)c4)c3c2)o1 [lapatinib]
How it was run: as §1

[18] = compound: CS(=O)(=O)N1CCN(Cc2cc3nc(-c4cccc5[nH]ncc45)nc(N4CCOCC4)c3s2)CC1 [pictilisib]
How it was run: as §1

[19] = compound: CN1CCN(CCOc2cc(OC3CCOCC3)c3c(Nc4c(Cl)ccc5c4OCO5)ncnc3c2)CC1 [saracatinib]
How it was run: as §1

[20] = compound: CNc1nc(-c2ccc3c(N)n[nH]c3c2)cc(N2C[C@@H](C(=O)NC3CCCCC3)CC[C@H]2C)n1
How it was run: as §1

Measured: log2 fold change

BAG5 isoform 2 (UniProt Q9UL15)
inactive: [1] -0.042 | [2] -0.178 | [3] 0.029 | [4] 0.095 | [5] -0.102 | [6] 0.023 | [7] -0.041 | [8] -0.073 | [9] -0.002 | [10] 0.045 | [11] 0.013 | [12] -0.027 | [13] 0.028 | [14] 0.113 | [15] -0.132 | [16] -0.007 | [17] -0.057 | [18] 0.019

B4GAT1 (UniProt O43505)
inactive: [19] 0.169 | [2] -0.022 | [3] -0.121 | [4] -0.026 | [5] 0.017 | [6] 0.139 | [20] -0.053 | [7] -0.251 | [8] 0.067 | [9] -0.021 | [11] -0.092 | [12] -0.157 | [14] 0.055 | [15] -0.001 | [17] 0.001 | [18] 0.068

BHMT (UniProt Q93088)
inactive: [19] 0.346 | [1] 0.024 | [20] -0.143 | [10] -0.159

BID isoform 2 (UniProt P55957)
inactive: [19] 0.008 | [1] 0.04 | [3] 0.076 | [4] -0.053 | [5] -0.031 | [6] 0.033 | [20] -0.017 | [7] -0.011 | [8] -0.032 | [9] 0.045 | [10] 0.016 | [11] 0.08 | [12] 0.016 | [13] -0.045 | [14] -0.006 | [15] 0 | [16] 0.089 | [17] 0.005 | [18] 0.038

BLVRA (UniProt C9J1E1)
inactive: [19] -0.054 | [2] 0.138 | [4] 0.054 | [5] 0.021 | [20] -0.039 | [8] 0.135 | [9] -0.535 | [11] -0.02 | [12] 0.035 | [13] 0.846 | [14] 0.271 | [15] -0.058 | [16] 0.237 | [17] -0.357 | [18] 0.165

BSCL2 isoform 4 (UniProt Q96G97)
inactive: [19] -0.019 | [3] 0.03 | [4] -0.025 | [5] -0.113 | [20] -0.122 | [8] -0.071 | [11] 0.076 | [12] -0.132 | [13] -0.037 | [14] -0.248 | [15] 0.021 | [16] 0.069 | [17] 0.048 | [18] 0.126

BOP1 (UniProt Q14137)
inactive: [19] 0.011 | [1] -0.043 | [3] -0.013 | [4] 0.015 | [5] -0.157 | [6] 0.066 | [20] -0.016 | [7] 0.155 | [8] 0.046 | [9] -0.059 | [10] 0.161 | [11] 0.054 | [12] 0.077 | [13] -0.131 | [14] -0.085 | [15] 0.017 | [16] -0.012 | [17] -0.034 | [18] 0

Taken from above (two entries):
BHMT (UniProt Q93088)
inactive: [19] 0.346 | [1] 0.024 | [20] -0.143 | [10] -0.159

BID isoform 2 (UniProt P55957)
inactive: [19] 0.008 | [1] 0.04 | [3] 0.076 | [4] -0.053 | [5] -0.031 | [6] 0.033 | [20] -0.017 | [7] -0.011 | [8] -0.032 | [9] 0.045 | [10] 0.016 | [11] 0.08 | [12] 0.016 | [13] -0.045 | [14] -0.006 | [15] 0 | [16] 0.089 | [17] 0.005 | [18] 0.038

Next part.

BAIAP2 (UniProt Q9UQB8)
inactive: [19] 0.009 | [1] -0.016 | [3] 0.036 | [4] -0.103 | [5] -0.097 | [6] 0.014 | [20] -0.017 | [7] 0.006 | [8] -0.022 | [9] 0.014 | [10] -0.029 | [11] -0.016 | [12] -0.003 | [13] 0.008 | [14] -0.131 | [15] -0.026 | [16] -0.024 | [17] 0.036 | [18] 0

AUNIP isoform 2 (UniProt Q9H7T9)
inactive: [19] -0.007 | [1] -0.085 | [3] 0.278 | [4] 0.189 | [5] 0.043 | [20] -0.086 | [8] 0.342 | [10] 0.125 | [11] -0.044 | [12] 0.142 | [14] -0.229 | [17] 0.099

B3GNT8 (UniProt Q7Z7M8)
inactive: [1] -0.016 | [10] 0.045

BPIFA1 (UniProt Q9NP55)
inactive: [1] -0.024 | [6] 0.325 | [7] -0.242 | [9] 1.49 | [10] -0.213 | [13] 1.47 | [15] 1.39 | [16] -0.055

BCL7A isoform 2 (UniProt Q4VC05)
inactive: [1] 0.115 | [3] -0.004 | [4] -0.119 | [6] 0.077 | [7] -0.065 | [10] -0.025 | [12] 0.104 | [14] 0.156 | [17] 0.052

BNIP3 (UniProt Q12983)
inactive: [1] 0.04 | [3] 0.204 | [5] -0.003 | [6] -0.047 | [7] 0.054 | [8] -0.038 | [10] -0.12 | [12] 0.006 | [13] 0.037 | [14] -0.08 | [15] -0.018 | [16] 0.124 | [17] 0.016 | [18] -0.04

— the supplement of paper PMC10849652
